{"source": "PubChem BioAssay (EPA / NIEHS)", "note": "Inconclusive means that the source gave no clear call. Such entries were picked first, then a sample of the others. A potency beside an inconclusive call is a rough fit, not a confirmed value. Active and inactive are the calls of the source. Rule for the calls: active = hit-call score of the fitted dose curve at least 0.9, where 1 is the maximum; inconclusive = response in the unintended direction; inactive = score below 0.9."}
{"read-out": "ABC Transporter (ABCB1), ABCB1 (gene 5243)", "assay": "CLD_ABCB1_24hr: CellzDirect (CLD) Gene Expression Assay for ABC Transporter (ABCB1) at 24 hours (AID 2283684);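 note: potency for increase in ABCB1 mRNA relative to DMSO vehicle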", "procedure,_shortened": "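Primary human hepatocytes, two donor preparations, dosed daily with fresh solutions; vehicle 0.2% DMSO; harvested at 24 h. ABCB1 mRNA measured by quantitative nuclease protection assay (chemiluminescence); morphology-based cytotoxicity annotated.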"}
{"smiles": "Nc1c(Cl)cc([N+](=O)[O-])cc1Cl", "AC50": "inconclusive: 20 µM"}
{"smiles": "O=C(Nc1ccccc1)Nc1cnns1", "AC50": "inconclusive: 20 µM"}
{"smiles": "CCCN(CCOc1c(Cl)cc(Cl)cc1Cl)C(=O)n1ccnc1", "AC50": "active: 32.7 µM"}
